Experimental findings from patent US20160159888A1 are described below.

Assay [1] addresses recombinant S100A4 protein (species not stated for the experiment). The experiment in a line: immunoprecipitation with Protein G Sepharose, Western blot (FIG. 4B). In general terms: Immunoblotting shows a protein as a band on a membrane.
The target is the same in assay [2]. As to the kind of experiment: competitive immunoprecipitation.

Results are given in words; binding and its absence hold for the method and conditions named. Binding can be weak; no strength is given.

B1: anti-S100A4 mouse monoclonal antibody, clone 6B12 (antibody, V domains shown)
VH: DVQLQESGPGLVKPSQSLSLTCSVTGDSFTNDYYWNWIRQFPGSKLEWMGHIGYGGNINYNPSLKNRISITRDTSKNQFFLRLTSVTTEDTATYYCTRESFYDGYPFDYWGQGTLVTVSA
VL: DIQMTQTTSSLSASLGDRVTISCRASQDIRNYLNWYQQRPGGTLKLLIYYTSRLHSGVPSRFSGSGSGTDYSLTISNLEQEDIATYFCQQGNSLPRTFGGGTKLEIK
Take B1: the binding entry in assay [1] and in assay [2] was “binds” each time.
